At least one structure is not confirmed: it was looked up by name or label, or the drawing left a doubt.
How the values were obtained:
H460^C cells [1] = test: DHA- and FINO2-induced cell death with FSEN1 co-treatment; type: cell-based
Experimental: (§1) For cell-based screen, cells were seeded in triplicate at a density of 500-750 cells per 50 μL per well in black 384-well plates (NUNC) and (Corning) 24 hr before start of imaging. After 24 hr, an additional 50 μL of drug infused medium containing 30 nM SYTOX Green Dead Cell Stain was carefully placed into the wells on top of existing medium. The plates were immediately transferred to an IncuCyte S3 imaging system (Essen Bioscience) enclosed in an incubator set to 37° C. and 5% CO2. One image per well were captured in the phase, green, and red channels every 1.5 or 3 hr over a 24 hr period, and the ratio of SYTOX Green-positive objects (dead cells) to SYTOX Green-positive plus Sg-SAFE mCherry-positive objects (total cells) was quantified using S3 image analysis software (Essen Bioscience). For each treatment condition, the SYTOX-to-′SYTOX+mCherry′-object ratio was plotted against the 24 hr imaging interval, the Area Under the Curve (AUC) was calculated and the average AUC was plotted using Prism (GraphPad). To calculate the half-maximal effective concentration (EC50) values, the AUC curve was fit to a variable slope function comparing response to drug concentration.
(§2) Synergy experiments: For cell-based synergy experiments, cells were seeded at a density of 750 cells per 25 μL per well in four black 384-well plates (Corning) 24 hr before start of imaging. […]

H460^C cells [2] = test: GPX4 inhibitor-induced cell death with FSEN1 co-treatment; type: cell-based
Experimental: as §1, §2

Row | SMILES | ferroptosis induced on its own (H460^C cells [1]; H460 lung cancer cells, without FSEN1) | effect on cell death induced by co-treatment of FSEN1 with RSL3 (H460^C cells [2]) | effect on cell death induced by DHA and FSEN1 together (H460^C cells [1]; H460^C cells)
1 | C[C@H]1[C@@H](O)O[C@@H]2O[C@@]3(C)CC[C@H]4[C@H](C)CC[C@@H]1[C@@]24OO3 [DHA, dihydroartemisinin] | minimal amounts of ferroptosis |  | 
2 | CC(=O)N(O)CCCCCNC(=O)CCC(=O)N(O)CCCCCNC(=O)CCC(=O)N(O)CCCCCN [DFO, deferoxamine] |  | blocked | completely suppressed

Source: US20250161297A1, “COMPOSITIONS AND METHODS FOR INHIBITING FSP1” (THE REGENTS OF THE UNIVERSITY OF CALIFORNIA, priority 2022, published 2025)
